Results are given in words; binding and its absence hold for the method and conditions named. For some assays here: Binding can be weak; no strength is given. Tags and fused reporters may be left off the sequences shown.

For assay [1], the target named is HD domain of ATH1 fused to BD (Arabidopsis thaliana). The experiment in a line: two-hybrid; BD fusions of ATH1 or its HD or SKY-BELL domain co-expressed with AD-OFP1 in yeast Y2HGold; growth on SD QDO (-Leu, -His, -Trp, -Ade) after selection on SD DDO (-Trp, -Leu); three replicates.
Assay [2] deals with SKY-BELL domain of ATH1 fused to BD (Arabidopsis thaliana). The description is as above.

B1: OFP1-AD (Ovate Family Protein1 fused to the activation domain) (protein, UniProt Q9LZW2 1-270)
chain: MGNNYRFKLSELIPNAWFYKLRDMSKSKKKNLQSQPNSTTSKKKHHAVPTPTSTTPLSPRPPRRPSHSSKAPPSHPPRKSSGNRLRHRATVDSKSSTTSGDSTTTETGSFSPDFRSDQVLLPDESLTGSWHSPCSSKLSKTATFTPPPELELRPIITKTAATARKTAVNSPAGVRLRMRSPRISVSSSARRSGSSARRSRAVVKASVDPKRDFKESMEEMIAENKIRATKDLEELLACYLCLNSDEYHAIIINVFKQIWLDLNLPPPHSK
In the case of B1, the binding entry in assay [1] is “binds”; in assay [2] it was “no binding”.

The values are drawn from publication PMC6116164.
